In publication PMC4452847:
These are yes or no findings as the source states them, for the method shown. In cells and extracts the contact can be indirect. Some binding calls cover weakened binding; strength is not graded here.

Sequences of proteins named here, by UniProt entry; tags and fusion partners are left off. Residues count along the entry.
UniProt Q99K10, residues 46-843: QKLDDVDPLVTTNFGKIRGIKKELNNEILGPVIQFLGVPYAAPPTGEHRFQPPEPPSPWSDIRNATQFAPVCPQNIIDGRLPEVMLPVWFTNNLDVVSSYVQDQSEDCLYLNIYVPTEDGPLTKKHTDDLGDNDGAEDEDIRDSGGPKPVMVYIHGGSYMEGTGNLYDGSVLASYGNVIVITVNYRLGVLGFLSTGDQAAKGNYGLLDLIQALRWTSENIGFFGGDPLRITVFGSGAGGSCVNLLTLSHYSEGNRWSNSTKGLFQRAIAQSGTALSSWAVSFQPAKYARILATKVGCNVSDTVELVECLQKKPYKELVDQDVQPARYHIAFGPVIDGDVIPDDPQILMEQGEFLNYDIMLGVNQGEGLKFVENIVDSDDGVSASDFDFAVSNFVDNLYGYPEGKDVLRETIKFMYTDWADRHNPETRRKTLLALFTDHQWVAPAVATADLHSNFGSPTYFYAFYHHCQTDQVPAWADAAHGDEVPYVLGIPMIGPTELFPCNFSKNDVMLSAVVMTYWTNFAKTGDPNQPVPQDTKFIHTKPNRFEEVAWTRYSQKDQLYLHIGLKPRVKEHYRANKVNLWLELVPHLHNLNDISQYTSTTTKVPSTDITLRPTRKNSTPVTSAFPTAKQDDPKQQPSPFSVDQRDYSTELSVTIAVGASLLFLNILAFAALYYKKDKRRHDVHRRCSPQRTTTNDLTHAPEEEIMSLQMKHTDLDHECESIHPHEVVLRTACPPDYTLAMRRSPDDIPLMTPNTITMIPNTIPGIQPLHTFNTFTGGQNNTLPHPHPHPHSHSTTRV

Assays:
[1] = molecular target: HA-tagged neuroligin 1, NL1-AB (UniProt Q99K10); assay: co-IP; lysates of HEK293 cells transfected singly with HA-NL1-AB, myc-Kal-7 or FLAG-DISC1 were mixed as indicated (with or without the third lysate), then immunoprecipitated; immunoblot
[2] = molecular target: HA-tagged neuroligin 1, NL1-AB (UniProt Q99K10); assay: co-IP; lysates of HEK293/293T cells transfected singly with HA-NL1-AB or myc-Kal-7 were mixed, then immunoprecipitated with anti-HA, anti-myc or anti-Kal antibody; IP buffer PBS, 1% NP40; protein A/G magnetic beads; immunoblot

myc-tagged kalirin-7 (pEAK10-His-Myc-Kal7) (from UniProt P97924-6 1-1654)
binding [1]: binds | binding [2]: binds
